From PubChem BioAssay AID2685 (National Center for Advancing Translational Sciences (NCATS), 2010)
The other results are listed elsewhere or left out. Shown are side measurements of this screen, not its main read-out; they come without a call. Most of these compounds were active or inconclusive in the main read-out, so they are no random draw. Potencies come from curve fits of mixed quality, noted in brackets.

Test: qHTS Assay for Lipid Storage Modulators in Drosophila S3 Cells;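 for cell number change: cells counted by Cell Tracker Red CMTPX staining in the red channel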
Settings: BODIPY lipid droplet fluorescence, 18-24 h; for cell number change: measured here: cell count max response, cells fed with added oleic acid
Procedure, shortened: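 Laser-scanning cytometry quantifies lipid droplet accumulation (500–530 nm total intensity; droplet/cell object ratio) in oleic acid-fed (400 uM added) Drosophila S3 cells treated with a concentration series. 20 uM Triacsin C defined 100% inhibition.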

[1] = measured here: lipid fluorescence (Fed channel) AC50, cells fed with added oleic acid
[2] = measured here: cell number channel AC50, cells fed with added oleic acid

Row | SMILES | cell number change [%] | AC50 [1] | AC50 [2]
1 | Cc1ccsc1C(=O)OCC(=O)c1cc2ccccc2o1 | -0.395 | 16.4 µM [falling, single point] | 
2 | COc1ccc(OC)c(/C=N/Nc2nncn2/N=C/c2cc(OC)ccc2OC)c1 | -26.9 | 6.51 µM [falling, partial curve] | 0.92 µM [falling, full curve, poor fit]
3 | COc1ccc(-c2c(-c3ccccc3OC)oc3ccccc23)cc1F | -40.5 |  | 1.84 µM [falling, partial curve, poor fit]
4 | CCCc1ccc(OC(=O)c2ccc(O)cc2Cl)cc1 | -47 | 20.6 µM [falling, single point] | 18.4 µM [falling, single point]
5 | COc1ccccc1NC(=O)CCC(=O)N(Cc1ccc(OC)c(OC)c1)c1nccs1 | -31.7 | 9.2 µM [falling, partial curve] | 13 µM [falling, partial curve]
6 | N#CCOC(=O)[C@H](Cc1c[nH]c2ccccc12)NS(=O)(=O)c1ccc(Cl)cc1 | 19.6 |  | 
7 | O=C(COc1ccc(C(=O)c2ccccc2)cc1)NCC(=O)Nc1ccccc1Br | 37.5 | 18.4 µM [rising, partial curve] | 10.3 µM [rising, partial curve]
8 | NC(=O)NC(=O)COC(=O)c1ccc(OC(F)(F)F)cc1 | 6.05 |  | 6.51 µM [falling, single point]
9 | CCN(C(=O)COC(=O)c1cc(Cl)ccc1OC)c1c(N)n(Cc2ccccc2)c(=O)[nH]c1=O | 14.8 |  | 0.82 µM [falling, single point]
10 | O=C(COc1ccc2c3c(c(=O)oc2c1)CCC3)N1CCN(c2ccc(F)cc2)CC1 | 8.36 | 5.17 µM [falling, full curve, poor fit] | 
11 | CN1C(=O)/C(=C2\SC(=S)N(C(CCC(=O)O)C(=O)O)C2=O)c2ccccc21 (stereo unspecified) | -17.4 | 7.31 µM [falling, partial curve] | 
12 | Cn1cc(Br)c(C(=O)NN2C(=O)C3C4C=CC(C5CC45)C3C2=O)n1 (stereo unspecified) | -8.23 | 3.66 µM [falling, full curve, poor fit] | 
13 | Cc1ccc(NC(=O)CN2CCC(C(N)=O)CC2)cc1[N+](=O)[O-] | -19.9 | 6.51 µM [falling, single point] | 
14 | CCc1nc2ccccc2c(NC(=O)CN2CC(C)CC(C)C2)c1C (stereo unspecified) |  | 29.1 µM [falling, single point] | 
15 | O=C(CSc1ccc(-c2ccccn2)nn1)c1ccc(F)cc1 | 12.1 | 0.184 µM [rising, full curve, poor fit] | 
16 | N=c1oc2ccc(Br)cc2cc1C(=O)NCc1ccccc1 | 9.7 | 0.651 µM [rising, single point] | 
17 | Cc1cccc(CC2CC(=O)N(CCc3ccc4c(c3)OCO4)C2=O)c1 (stereo unspecified) | 32.1 |  | 13 µM [rising, partial curve, poor fit]
18 | Cc1cc(OC(=O)c2ccccc2C)c([N+](=O)[O-])c(=O)[nH]1 | -5.66 | 3.66 µM [rising, single point] | 
19 | COCCOC(=O)C1=C(C)NC(=O)CC1c1cc2c(cc1Br)OCO2 (stereo unspecified) |  | 0.82 µM [rising, full curve] | 1.3 µM [rising, full curve]
20 | C/C(=N\NC(=O)C1(C)CC1(Br)Br)c1cccc(NC(=O)C(C)(C)C)c1 (stereo unspecified) | -13.4 | 13 µM [falling, partial curve, poor fit] | 2.31 µM [falling, single point]
21 | COc1cccc2c(=S)c(CCC(C)=O)c(C)[nH]c12 | 1.05 |  | 

Quoted from the listing.
Value for CN1C(=O)/C(=C2\SC(=S)N(C(CCC(=O)O)C(=O)O)C2=O)c2ccccc21 (stereo unspecified) under AC50 [1]: 7.31 µM [falling, partial curve]
Value for CCc1nc2ccccc2c(NC(=O)CN2CC(C)CC(C)C2)c1C (stereo unspecified) under AC50 [1]: 29.1 µM [falling, single point]
Value for CCN(C(=O)COC(=O)c1cc(Cl)ccc1OC)c1c(N)n(Cc2ccccc2)c(=O)[nH]c1=O under AC50 [2]: 0.82 µM [falling, single point]

Next part.

Row | SMILES | cell number change [%] | AC50 [1] | AC50 [2]
22 | CCCn1c(N2CCN(C(=O)N3CCCCC3)CC2)nc2ccccc21 | -17 | 3.26 µM [rising, single point] | 
23 | COC(=O)C1CN(S(=O)(=O)c2ccc(NC(C)=O)cc2)CCS1 (stereo unspecified) | 22.9 | 1.16 µM [rising, single point] | 
24 | Cc1ccc2nc(-c3cccc(N)c3)oc2c1 |  | 16.4 µM [rising, partial curve] | 
25 | CCn1cc(C(=O)NC2CCC(C)CC2)c(=O)c2cc(S(=O)(=O)N3CCCCC3)ccc21 (stereo unspecified) |  | 2.06 µM [rising, partial curve] | 1.64 µM [rising, partial curve]
26 | O=C(COC(=O)C12CC3CC(CC(O)(C3)C1)C2)NC12CC3CC(CC(C3)C1)C2 | -65.7 |  | 11.6 µM [falling, partial curve]
27 | Cc1cccc(N2CCN(C(=O)C3COc4ccccc4O3)CC2)c1C (stereo unspecified) | 5.75 |  | 
28 | O=C(C(Cc1ccccc1)n1cccc1)N1CCN(Cc2ccccc2)CC1 (stereo unspecified) | 4.22 |  | 
29 | CCOC(=O)c1c(NC(=O)c2cccs2)sc2c1CCN(C(=O)OCC)C2 | -33.7 |  | 29.1 µM [falling, single point]
30 | O=C1c2ccccc2C(=O)N1SC1CCCCC1 | -66.1 | 29.1 µM [falling, single point] | 18.4 µM [falling, single point]
31 | COc1ccc(NS(=O)(=O)c2cc(NC(=O)c3nc4nc(C)cc(C)n4n3)ccc2C)cc1 | 3.69 | 0.231 µM [rising, full curve, poor fit] | 
32 | CN1C(=O)c2cccc3c(S(=O)(=O)N4CCCC4C(=O)O)ccc1c23 (stereo unspecified) | 14.5 |  | 
33 | O=C(/C=C/c1cccs1)N1CCC2(CC1)Oc1ccc(F)cc1C(=O)C21CC(c2ccc(Cl)cc2)=NO1 (stereo unspecified) | 9.08 |  | 
34 | Cc1ccc(S(=O)(=O)N2CCC(C(=O)Nc3ccc4c(c3)OCO4)CC2)cc1 | -5.55 | 6.51 µM [rising, single point] | 
35 | CC1(C)CC(NC(=O)c2ccc3c(c2)OCO3)CC(C)(C)N1 | 1.69 | 6.51 µM [falling, single point] | 
36 | COc1cccc(-c2nn3c(-c4cc(C)[nH]n4)nnc3s2)c1 | 3.54 |  | 
37 | CCOC(=O)COc1coc(CN2CCN(c3ccccc3)CC2)cc1=O | 3.68 |  | 
38 | Cc1ccccc1C(=O)NC1CCN(CC(=O)Nc2nccs2)CC1 |  |  | 0.58 µM [rising, single point]
39 | CCOC(=O)CSc1ncnc2c(C(=O)OCC)c3n(c12)CCC3 | -8.75 |  | 
40 | Cn1c(SCc2ccc(F)cc2)nnc1-c1ccccn1 |  | 7.31 µM [rising, partial curve, poor fit] | 6.51 µM [rising, single point]
41 | CN(C)c1ccc(CNn2cnnc2)cc1 | -26.3 | 25.9 µM [falling, single point] | 0.651 µM [falling, full curve, poor fit]
42 | Cc1cc(S(=O)(=O)NCC(C)C)ccc1OCC(=O)NCc1ccccn1 | -0.957 |  | 

Row | SMILES | cell number change [%] | AC50 [1] | AC50 [2]
43 | O=C(Nc1ccc(NC(=O)c2cccnc2Cl)cc1)c1cccc(Cl)c1 | 107 | 0.206 µM [rising, single point] | 29.1 µM [rising, single point]
44 | Cc1c(C(=O)NCc2ccco2)sc2nc(-c3ccccc3)cn12 | -52.7 |  | 29.1 µM [falling, single point]
45 | Cc1ccc2c(c1)cc(C(=O)NCc1ccccc1)n2C | -10.7 | 0.58 µM [rising, single point] | 
46 | CC(C)c1ccccc1NC(=O)c1ccccc1NC(=O)C1CCCCC1 | -1.19 | 2.59 µM [rising, partial curve] | 
47 | COc1cc(-c2nc3ccc(C)cn3c2NCc2ccccc2)ccc1SC1CCCCC1 | -76.9 | 1.84 µM [falling, partial curve] | 1.84 µM [falling, partial curve]
48 | CCn1c2ccccc2c2cc(NC(=O)COc3ccccc3)ccc21 | 16.6 | 0.326 µM [rising, full curve] | 
49 | O=S(=O)(c1ccc(=S)[nH]c1)N1CCCCC1 | 13.5 | 29.1 µM [rising, single point] | 
50 | CCCCN(CC)C(=O)Cn1ncc2c3ccccc3n(CCC)c2c1=O | -5.67 | 0.58 µM [falling, single point] | 
51 | Cc1[nH]n(-c2ccc(Cl)cc2)c(=O)c1/C=N/c1nnc(-c2ccccc2)s1 |  | 14.6 µM [falling, single point] | 
52 | O=C(Nc1ccc(N2CCN(C(=O)c3ccco3)CC2)c(Cl)c1)c1c(F)c(F)c(F)c(F)c1F | -149 |  | 29.1 µM [falling, single point]
53 | CCCc1cc(-c2ccc(O)c(OCC)c2)c(C#N)c(N)n1 | -6.79 |  | 
54 | Cc1ccc(NCC(=O)N/N=C\c2cccc(O)c2)cc1 | 30.1 |  | 
55 | Cc1nn(Cc2ccccc2)c(Cl)c1/C=C/C(=O)OC(C(=O)NC(N)=O)C(C)C (stereo unspecified) | 1.95 |  | 
56 | CCOc1cc(C(=O)Nc2cccc(C(C)=O)c2)ccc1OCC(=O)N1CCCCC1 | 46.9 |  | 20.6 µM [rising, single point]
57 | COC(=O)N1C(=O)[C@](c2ccccc2)(C2CCCC2)N1C(=O)OC | -5.99 | 6.51 µM [rising, single point] | 
58 | Cc1ccc(NC(=O)c2nc3nccc(C)n3n2)c(C)c1 | -11.7 |  | 
59 | COc1cc(/C=C2\SC(N)=NC2=O)cc(OC)c1 | -12.2 |  | 
60 | S=C(Nc1ccccc1)Nc1cc(Cl)ccc1Oc1ccccc1 | 44.7 | 20.6 µM [rising, single point] | 18.4 µM [rising, single point]
61 | Cc1cc(OCCOCCN2CCCC2)ccc1C(C)C | -48.2 | 16.4 µM [falling, single point] | 16.4 µM [falling, partial curve]
62 | COc1cccc(OCc2cc(C(=O)NC3CCOCC3)no2)c1 | -11.8 | 29.1 µM [falling, single point] | 
